Experimental data as given in the supplement of paper PMC8256030.
Several values for one entry are separate records, joined by “and”; a condition that tells them apart may be missing. Equal values may be shown once. Where a name gives a salt, the structure may show the parent alone. Some of the results follow. Single values are uncertain here, since repeats match poorly.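 HEK293T cells were given each compound shortly before transfection with a reporter in which red mCherry is followed by the SARS-CoV-2 frameshift element and then GFP in the −1 frame, so GFP appears only after frameshifting.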

Columns and labels:
[1] = test system: SARS-CoV-2 -1 PRF reporter mCherry-FSE-GFP(-1); experiment: mCherry (red) intensity as percent of control; higher = higher upstream reporter expression; settings: 10 µM; 24 h; HEK293T
[2] = test system: SARS-CoV-2 -1 PRF reporter mCherry-FSE-GFP(-1); experiment: percent effect, decrease of GFP/mCherry ratio (-1 PRF reporter) relative to controls; higher = stronger frameshift inhibition; settings: 10 µM; 24 h; HEK293T

What does the source list for `CC[C@]12CCCN3CCc4c(n(c5ccccc45)[C@@](O)(C(=O)OC)C1)[C@@H]32` [vincamine]?
mCherry [1]: 111%; percent effect [2]: 4.12%

How did the mCherry [1] turn out when `CN(C)c1cc(NC(=O)CNC(C)(C)C)c(O)c2c1CC1CC3C(N(C)C)C(=O)C(C(N)=O)=C(O)C3(O)C(=O)C1=C2O` (centres undefined) [Tygacil] was run?
The mCherry was 97.1%.

What about the percent effect [2] of the same molecule?
Its percent effect is -7.3%.

Which results are given for `C[C@]12C[C@H](O)[C@H]3[C@@H](CCC4=CC(=O)CC[C@@]43C)[C@@H]1CC[C@@H]2C(=O)CO` [Corticosterone]?
mCherry [1]: 88.1%; percent effect [2]: -0.762%

What does the source list for `CN1N=C(C(N)=O)CCC1=O` [medazomide]?
mCherry [1]: 113%; percent effect [2]: 1.63%

Which mCherry [1] does the source give for `CC(C)[C@H]1CC[C@H](C)C[C@@H]1O` [racementhol] here?
Its mCherry is 94.4%.

And the percent effect [2]?
The percent effect was -0.256%.

For `NC(=O)Oc1ccc(Cc2ccccc2)cc1` [diphenan], which mCherry [1] is on record?
Its mCherry is 95.3%.

What about the percent effect [2] of the same molecule?
The percent effect was -7.81%.

How did the mCherry [1] turn out when `CCN(CC)CCNC(=O)c1ccc(NC(C)=O)cc1` was run?
Its mCherry is 101%.

What about the percent effect [2] of the same molecule?
The percent effect was -1.1%.

For `CC1(C)OC(=O)C(OCC2CC2)=C1c1ccc(S(C)(=O)=O)cc1` [firocoxib], which mCherry [1] is on record?
The mCherry was 111%.

And the percent effect [2]?
The percent effect was 0.36%.

Which mCherry [1] does the source give for `CC(=O)[C@@]1(O)CC[C@H]2[C@@H]3C[C@H](C)C4=CC(=O)C=C[C@]4(C)[C@@]3(F)[C@@H](O)C[C@@]21C` [fluorometholone] here?
The mCherry was 118% and 109%.

And the percent effect [2]?
The percent effect was -4.71% and -5.3%.

With `Cc1c(Cl)cccc1Nc1ncccc1C(=O)O` [clonixin] as the molecule, how does the mCherry [1] read?
Its mCherry is 98.9%.

What about the percent effect [2] of the same molecule?
Its percent effect is -4.52%.

Which mCherry [1] does the source give for `CC[C@H](c1ccc(O)cc1)[C@@H](CC)c1ccc(O)cc1` [hexestrol] here?
Its mCherry is 108% and 104%.

And the percent effect [2]?
Its percent effect is -3.29% and -4.83%.

How did the mCherry [1] turn out when `C=CCc1ccccc1OCC(O)CNC(C)C` (centres undefined) [Alprenolol·HCl] was run?
The mCherry was 94.3%.

What about the percent effect [2] of the same molecule?
The percent effect was 0.672%.

Which results are given for `CS(=O)(=O)c1ccc([C@@H](O)[C@@H](CO)NC(=O)C(Cl)Cl)cc1` [thiamphenicol]?
mCherry [1]: 117%; percent effect [2]: 2.8%

How did the mCherry [1] turn out when `C#C[C@]1(OC(C)=O)CC[C@H]2[C@@H]3CCC4=C/C(=N/O)CC[C@@H]4[C@H]3CC[C@@]21CC` [Ortho-Prefest] was run?
The mCherry was 99.2%.

What about the percent effect [2] of the same molecule?
The percent effect was -2.85%.

What does the source list for `CC(C)[C@H](NC(=O)[C@H](CC(=O)O)NC(=O)[C@H](CCCCN)NC(=O)[C@@H](N)CCCN=C(N)N)C(=O)N[C@@H](Cc1ccc(O)cc1)C(=O)O`?
mCherry [1]: 96.7%; percent effect [2]: 0.203%

For `CC(=O)OCC(=O)[C@@]1(O)[C@H](OC(C)=O)C[C@H]2[C@@H]3CCC4=CC(=O)C=C[C@]4(C)[C@@]3(F)[C@@H](O)C[C@@]21C`, which mCherry [1] is on record?
The mCherry was 93.8%.

What about the percent effect [2] of the same molecule?
Its percent effect is -1.11%.

What does the source list for `CC(C)c1c(C(=O)Nc2ccccc2)c(-c2ccccc2)c(-c2ccc(F)cc2)n1CC[C@@H](O)C[C@@H](O)CC(=O)O`?
mCherry [1]: 89.6%; percent effect [2]: -1.29%

How did the mCherry [1] turn out when `CN[C@H]1C(=O)N[C@@H]2Cc3ccc(cc3)Oc3cc4cc(c3O[C@@H]3O[C@H](C(=O)O)[C@@H](O)[C@H](O)[C@H]3NC(=O)CCCCCCCCC(C)C)Oc3ccc(cc3Cl)[C@@H](O)[C@@H]3NC(=O)[C@H](NC(=O)[C@@H]4NC(=O)[C@@H](NC2=O)c2cc(cc(O)c2Cl)Oc2cc1ccc2O)c1ccc(O)c(c1)-c1c(O[C@H]2O[C@H](CO)[C@@H](O)[C@H](O)[C@@H]2O)cc(O)cc1[C@@H](C(=O)NCCCN(C)C)NC3=O` [dalbavancin] was run?
Its mCherry is 103%.

And the percent effect [2]?
Its percent effect is 0.755%.

Which results are given for `C=CC(N)CCC(=O)O` (centres undefined) [vigabatrin]?
mCherry [1]: 96.2%; percent effect [2]: -4.63%

How did the mCherry [1] turn out when `CCOC(=O)c1ncn2c1CN(C)C(=O)c1cc(F)ccc1-2` [flumazenil] was run?
Its mCherry is 124% and 107%.

What about the percent effect [2] of the same molecule?
The percent effect was 0.393% and -2.89%.

Which results are given for `COc1cc(C(=O)N2CCOCC2)cc(OC)c1OC` [trimetozine]?
mCherry [1]: 99.8%; percent effect [2]: -1.89%

Which results are given for `Nc1nc2c(ncn2COCCO)c(=O)[nH]1` [aciclovir]?
mCherry [1]: 85.5%; percent effect [2]: -4.54%

For `C[N+](C)(CCOc1ccccc1)Cc1cccs1` [thenium closilate], which mCherry [1] is on record?
The mCherry was 114%.

What about the percent effect [2] of the same molecule?
The percent effect was -3.9%.

What does the source list for `CC(O)CC(C)(C)O` (centres undefined)?
mCherry [1]: 91.6%; percent effect [2]: -7.31%

For `Cc1sc[n+](CC(=O)c2ccccc2)c1C` [alagebrium chloride], which mCherry [1] is on record?
Its mCherry is 103%.

And the percent effect [2]?
Its percent effect is -1.28%.

Which results are given for `Nc1nc(OCc2cc(Br)cs2)c2[nH]cnc2n1` [lomeguatrib]?
mCherry [1]: 99.2%; percent effect [2]: -6.35%

Which mCherry [1] does the source give for `CCC(OC(N)=O)C1CCCCC1` (centres undefined) [procymate] here?
Its mCherry is 106%.

And the percent effect [2]?
Its percent effect is -2.6%.

Which mCherry [1] does the source give for `CC(C(=O)O)c1ccc(N2CC=CC2)c(Cl)c1` (centres undefined) [pirprofen] here?
The mCherry was 94.9%.

What about the percent effect [2] of the same molecule?
Its percent effect is -4.04%.

Which mCherry [1] does the source give for `Nc1nc2[nH]cnc2c(=S)[nH]1` here?
Its mCherry is 24.1%.

And the percent effect [2]?
Its percent effect is -17.2%.

For `CCOC(=O)N1c2ccc(C(F)(F)F)cc2[C@@H](N(Cc2cc(C(F)(F)F)cc(C(F)(F)F)c2)C(=O)OC)C[C@H]1CC` [torcetrapib], which mCherry [1] is on record?
The mCherry was 84.8%.

And the percent effect [2]?
Its percent effect is -1.4%.

What does the source list for `CC1=CC(=O)c2ccccc2C1=O`?
mCherry [1]: 88.4%; percent effect [2]: -0.442%

What does the source list for `Cc1cc(-n2c(=O)[nH]c(=O)n(C)c2=O)ccc1Oc1ccc(SC(F)(F)F)cc1` [toltrazuril]?
mCherry [1]: 105%; percent effect [2]: -0.616%
